This is a selection; strong and weak results do not stand in their true shares.
The targets below were run with COC(=O)C#Cc1ccccc1 [methyl 3-phenylpropiolate] (assay: log2 ratio of iodoacetamide-alkyne labeling of the cysteine site, DMSO over compound (competition); higher = stronger covalent engagement of the cysteine by the compound, active = 1 or more). Conditions: 500 µM; treatment time 1 h; system: HEK293T cell lysate.
Outline: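 After 1 h at ambient temperature with vehicle or electrophile (500 µM), HEK293T lysate (2 mg/mL) was labelled for 1 h with iodoacetamide alkyne and clicked to sCIP-TMT reagents. Pooled samples were trypsin-digested overnight at 37 °C, streptavidin-enriched, acid-eluted and analysed by Orbitrap Eclipse LC-MS/MS with FAIMS, then quantified in FragPipe over three replicates with duplicate channels. A cysteine's log2 competition ratio is its mean control-channel over mean compound-channel reporter intensity. Cysteines quantified in only one replicate were not included.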

log2 ratio of iodoacetamide-alkyne labeling, inactive:
EIF3A C198 (UniProt Q14152) 0.211
SAFB2 C224 (UniProt Q14151) 0.0642
GAPVD1 C1160 (UniProt Q14C86) 0.00707
TRA2A C120 (UniProt Q13595) -0.000214
CUL3 C187 (UniProt Q13618) 0.0832
MDC1 C26 (UniProt Q14676) 0.436
PUM1 C1179 (UniProt Q14671) 0.0434
GAMT C220 (UniProt Q14353) 0.215
PRPSAP1 C19 (UniProt Q14558) 0.506
DYNC1H1 C3033 (UniProt Q14204) 0.0176
POLA2 C392 (UniProt Q14181) 0.0968
UniProt Q14141_C432 0.169
UniProt Q14197_C82 0.205
FKBP8 C227 (UniProt Q14318) 0.165
MORF4L2 C165 (UniProt Q15014) 0.0726
NUMA1 C658 (UniProt Q14980) -0.0504
CKAP5 C1026 (UniProt Q14008) 0.17
ITPR3 C1638 (UniProt Q14573) 0.747
SPTAN1 C315 (UniProt Q13813) -0.0382
MAP7 C644 (UniProt Q14244) 0.593
UniProt Q13885_C127 -0.581
PPP2R5D C17 (UniProt Q14738) 0.818
UniProt Q14444_C226 0.212
FRG1 C159 (UniProt Q14331) 0.373
ATR C1343 (UniProt Q13535) 0.114
AAMP C428 (UniProt Q13685) -0.0534
NUMA1 C299 (UniProt Q14980) 0.102
NCAPD2 C1249 (UniProt Q15021) 0.179
GALE C196 (UniProt Q14376) 0.152
NUMA1 C803 (UniProt Q14980) 0.588
NCAPH C402 (UniProt Q15003) 0.622
UniProt Q14004_C1017 0.529
FKBP8 C295 (UniProt Q14318) -0.104
CKAP5 C1795 (UniProt Q14008) 0.321
GANAB C423 (UniProt Q14697) 0.019
TTLL12 C126 (UniProt Q14166) -0.117
DSG2 C871 (UniProt Q14126) 0.132

3 entries drawn at random from the list so far, as already listed:
log2 ratio of iodoacetamide-alkyne labeling, inactive:
PPP2R5D C17 (UniProt Q14738) 0.818
CUL3 C187 (UniProt Q13618) 0.0832
AAMP C428 (UniProt Q13685) -0.0534
